Experiment [1] has as its target MUC1-GST fusion protein containing seven variable number tandem repeat (VNTR) region (UniProt P15941). As to the kind of experiment: ELISA, plate-coated MUC1-GST. A general note: In an ELISA, binding on a coated surface is turned into a signal by an enzyme label.
The target is the same in experiment [2]. Description: ELISA, plate-coated MUC1-GST; antibody from transient transfection.
For experiment [3] the target is unchanged. Description: ELISA, plate-coated MUC1-GST; antibody from stable NS0 line.
Experiment [4] shares this target. Description: ELISA, plate-coated MUC1-GST; NS0 against CHO material.
The target is the same in experiment [5]. Description: ELISA, plate-coated MUC1-GST; antibody from transient CHO transfection.

Sequences of proteins named here, by UniProt entry; tags and fusion partners are left off. Residues count along the entry.
UniProt P15941, residues 126-265: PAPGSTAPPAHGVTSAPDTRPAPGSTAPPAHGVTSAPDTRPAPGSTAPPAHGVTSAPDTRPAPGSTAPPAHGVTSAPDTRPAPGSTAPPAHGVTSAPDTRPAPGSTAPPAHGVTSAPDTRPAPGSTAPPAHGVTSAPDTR

Results are given in words; binding and its absence hold for the method and conditions named. Some results given as binding are weak or reduced against the parent protein; the word gives no strength.

B1: N56A HMFG1 (antibody, human IgG1, kappa, V domains shown)
VH: QVQLVQSGAEVKKPGASVKVSCKASGYTFSAYWIEWVRQAPGKGLEWVGEILPGSANSRYNEKFKGRVTVTRDTSTNTAYMELSSLRSEDTAVYYCARSYDFAWFAYWGQGTLVTVSS
VL: DIQMTQSPSSLSASVGDRVTITCKSSQSLLYSSNQKIYLAWYQQKPGKAPKLLIYWASTRESGVPSRFSGSGSGTDFTFTISSLQPEDIATYYCQQYYRYPRTFGQGTKVEIKR
B1: the binding result in experiment [1] is given as “binds”.

B2: N56V HMFG1 (antibody, human IgG1, kappa, V domains shown)
VH: QVQLVQSGAEVKKPGASVKVSCKASGYTFSAYWIEWVRQAPGKGLEWVGEILPGSVNSRYNEKFKGRVTVTRDTSTNTAYMELSSLRSEDTAVYYCARSYDFAWFAYWGQGTLVTVSS
VL: DIQMTQSPSSLSASVGDRVTITCKSSQSLLYSSNQKIYLAWYQQKPGKAPKLLIYWASTRESGVPSRFSGSGSGTDFTFTISSLQPEDIATYYCQQYYRYPRTFGQGTKVEIKR
Consider B2, for which the binding entry in experiment [2] and in experiment [1] was “binds” each time.

B3: N56C HMFG1 (antibody, human IgG1, kappa, V domains shown)
VH: QVQLVQSGAEVKKPGASVKVSCKASGYTFSAYWIEWVRQAPGKGLEWVGEILPGSCNSRYNEKFKGRVTVTRDTSTNTAYMELSSLRSEDTAVYYCARSYDFAWFAYWGQGTLVTVSS
VL: DIQMTQSPSSLSASVGDRVTITCKSSQSLLYSSNQKIYLAWYQQKPGKAPKLLIYWASTRESGVPSRFSGSGSGTDFTFTISSLQPEDIATYYCQQYYRYPRTFGQGTKVEIKR
Regarding B3, the binding entry in experiment [1] is recorded as “binds”.

B4: N56G HMFG1 (antibody, human IgG1, kappa, V domains shown)
VH: QVQLVQSGAEVKKPGASVKVSCKASGYTFSAYWIEWVRQAPGKGLEWVGEILPGSGNSRYNEKFKGRVTVTRDTSTNTAYMELSSLRSEDTAVYYCARSYDFAWFAYWGQGTLVTVSS
VL: DIQMTQSPSSLSASVGDRVTITCKSSQSLLYSSNQKIYLAWYQQKPGKAPKLLIYWASTRESGVPSRFSGSGSGTDFTFTISSLQPEDIATYYCQQYYRYPRTFGQGTKVEIKR
notes: also called N56G mutant
With B4, the binding entry in experiment [3], in experiment [4], in experiment [5] and in experiment [1] was “binds” in each case.

The record behind these values is patent US20090110632A1 (published 2009).
